Measured data: PubChem BioAssay AID1259424 (University of Nebraska Medical Center, 2018)

Assay: 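Find knockdowns that reproduce the expression shifts seen after KSR1 loss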 (primary screen)
System: human HCT116 colon cancer cells
Reagents: siRNA pool against human genes, 50 nM
Measurement: 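Six signature mRNAs by branched-DNA multiplex assay, scaled to two housekeeping genes and non-targeting median, log2; matched to mean KSR1 knockdown profile by Pearson correlation and euclidean distance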
Scale: mean correlation with KSR1 profile and KSR1 correlation: higher = expression change more like KSR1 knockdown; mean distance from KSR1 profile: higher = expression change less like KSR1 knockdown
The deposit covers about 14,000 reagents; this is an unselected part. 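Higher correlation or smaller distance means closer resemblance to KSR1 loss; control wells, including KSR1 knockdowns, recur on many plates.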 Not all columns of the deposit are shown. No sequences are given here. Not given: the time to read-out.

gene | mean correlation with KSR1 profile | mean distance from KSR1 profile | KSR1 correlation, replicate 1
HNF1B | 0.632 | 1.27 | 0.549
RHOT1 | -0.304 | 2.62 | -0.231
ATF7IP2 | -0.00719 | 3.1 | -0.0585
SEMA6C | -0.0192 | 1.41 | 0.192
GPR162 | 0.86 | 0.877 | 0.852
OSBPL2 | 0.221 | 1.36 | 0.34
KCNAB1 | -0.197 | 2.02 | -0.268
TEX264 | 0.169 | 2.23 | 0.0908
BUB3 | -0.319 | 2.37 | -0.238
SLC6A14 | 0.089 | 2.01 | -0.0354
S100A7 | -0.57 | 1.92 | -0.396
SEC14L5 | 0.563 | 1.89 | 0.111
MRPL41 | 0.38 | 1.09 | 0.406
MANF | -0.406 | 1.84 | -0.2
IPO4 | 0.409 | 1.87 | 0.477
CRLF2 | -0.344 | 2 | -0.61
SYP | 0.794 | 1.45 | 0.962
CEMIP2 | -0.463 | 2.27 | -0.14
KRT5 | -0.476 | 2.58 | -0.402
SKI | -0.316 | 1.96 | -0.292
M6PR | 0.416 | 1.03 | 0.148
STMN3 | -0.333 | 2.39 | -0.457
XPO1 | -0.412 | 1.89 | -0.335
ZNF671 | -0.378 | 2.53 | -0.403
SNX1 | 0.416 | 1.26 | 0.576
HNRNPR | 0.0447 | 1.52 | 0.157
CCNDBP1 | -0.519 | 4.11 | -0.609
ZNF136 | 0.256 | 1.4 | 0.163

A stretch taken from the entries so far, for reference:
gene | mean correlation with KSR1 profile | mean distance from KSR1 profile | KSR1 correlation, replicate 1
BUB3 | -0.319 | 2.37 | -0.238
SLC6A14 | 0.089 | 2.01 | -0.0354
S100A7 | -0.57 | 1.92 | -0.396
SEC14L5 | 0.563 | 1.89 | 0.111
MRPL41 | 0.38 | 1.09 | 0.406
MANF | -0.406 | 1.84 | -0.2
IPO4 | 0.409 | 1.87 | 0.477

Next reagents follow.
gene | mean correlation with KSR1 profile | mean distance from KSR1 profile | KSR1 correlation, replicate 1
LRRTM4 | 0.73 | 3.12 | 0.658
FGF18 | 0.0777 | 2.37 | 0.0258
FN1 | -0.00958 | 1.64 | 0.25
CDH11 | 0.163 | 1.32 | 0.324
KIF1C | -0.00409 | 1.73 | -0.0567
TP53BP2 | -0.123 | 1.58 | -0.116
LIMD2 | 0.467 | 3.23 | 0.388
MEGF10 | 0.0592 | 2.09 | 0.283
ANKFY1 | -0.2 | 4.38 | -0.0987
LINC02249 | 0.471 | 1.12 | 0.709
RNASE3 | -0.141 | 2.36 | -0.00738
PLXNA1 | 0.0259 | 1.37 | -0.418
HACL2 | -0.508 | 1.52 | -0.742
HSDL1 | 0.346 | 1.64 | 0.258
LILRA2 | -0.298 | 1.93 | -0.343
MAPK14 | 0.221 | 1.52 | 0.337
PSG1 | 0.47 | 1.4 | 0.716
RSL24D1 | -0.167 | 2.44 | -0.301
IGHM | 0.581 | 1.2 | 0.337
NR2F2 | -0.195 | 3.1 | -0.11
SFT2D3 | 0.363 | 3.3 | 0.187
MST1 | 0.447 | 1.15 | 0.335
NKX2-8 | -0.329 | 1.99 | -0.102
ENC1 | 0.285 | 1.47 | 0.264
MED7 | -0.273 | 4.09 | -0.21
ETFDH | -0.322 | 2.73 | -0.502
VCX3A | -0.711 | 1.26 | -0.531
ADGB | -0.114 | 2.23 | -0.102
ADAMTS16 | -0.48 | 2.41 | -0.506
ITPR3 | 0.566 | 1.68 | 0.574
ARPC1B | 0.581 | 1.23 | 0.507
CFAP410 | 0.28 | 2.65 | 0.41
ZNF701 | -0.281 | 2.23 | -0.0872
HSD17B7 | 0.14 | 1.89 | 0.281
TTC1 | -0.0323 | 4.52 | 0.0375
